Source: patent publication US20260015420A1
Results are given in words; binding and its absence hold for the method and conditions named.

Columns and labels:
Insulin [1] = assay: developability ELISA on coated insulin
Insulin [2] = assay: ELISA on coated insulin, OD450

binding (Insulin [1]): no binding
binding (Insulin [2]): no binding (tested: 1 ug/ml)
B1: chimeric anti-CD47 m5F9G4, human IgG1null (antibody, V domains shown)
VH: QVQLQQPGAELVKPGASVMMSCKASGYTFTNYNMHWVKQTPGQGLEWIGTIYPGNDDTSYNQKFKDKATLTADKSSSAAYMQLSSLTSEDSAVYYCARGGYRAMDYWGQGTSVTVSS
VL: DVLMTQTPLSLPVSLGDQASISCRSSQSIVYSNGNTYLGWYLQKPGQSPKLLIYKVSNRFSGVPDRFSGSGSGTDFTLKISRVEAEDLGVYHCFQGSHVPYTFGGGTKVEIK
